Data on one sequence can be found in publication PMC10656529.

Construct, isoform or probe ends are uncertain for at least one entry. Weaker means in comparison with the reference protein, sequence or condition of that experiment. Protein sequences can lack the tags named with them.

This series deals with T1, H-NS (UniProt P0ACF8).
T1 sequence (looked up, limits assumed): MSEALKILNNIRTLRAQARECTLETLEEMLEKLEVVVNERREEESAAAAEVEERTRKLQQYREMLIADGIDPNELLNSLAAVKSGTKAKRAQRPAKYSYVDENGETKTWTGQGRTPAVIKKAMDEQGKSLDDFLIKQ
The series is described as follows: EMSA. To be noted: 200 nM DNA after mixing, serial H-NS dilutions; H-NS in 130 mM NaCl, 20 mM Tris, 10% glycerol, 8 mM β-mercaptoethanol, 3 mM benzamidine, pH 7.2, mixed 1:1 with 400 nM DNA in water; 20 min at 25 °C then 10 min at 4 °C; recombinant protein. For orientation: In EMSA bound probe runs differently from free probe, usually more slowly.

Turning to “AGGGGTTGCCTCAGATTCTCAGTATGTTAGGGTAGAAGCAAGTGACGCTTTCCATTGGGTAGTACATCGACATAGACAAATAAAGGAATCTTTCTATTGCATGGCAATCAAACTCGAGATCAAGAACCTCTACAAGATCTTCGGCGAGCATCCACAGCGAGCGTTCAAGTACATCGAGCAGGGGCTCTCGAAGGAGCAGATCCTGGAGAAGACGGGG (double strand) [DREmut (DRE of NT644, pProU_GC)]”, the binding result is on record as “binds more weakly”.
